The record followed here is article doi:10.1101/2021.09.19.460961.

Amino acid sequences for entries named in this document (tags omitted).
UniProt Q13838: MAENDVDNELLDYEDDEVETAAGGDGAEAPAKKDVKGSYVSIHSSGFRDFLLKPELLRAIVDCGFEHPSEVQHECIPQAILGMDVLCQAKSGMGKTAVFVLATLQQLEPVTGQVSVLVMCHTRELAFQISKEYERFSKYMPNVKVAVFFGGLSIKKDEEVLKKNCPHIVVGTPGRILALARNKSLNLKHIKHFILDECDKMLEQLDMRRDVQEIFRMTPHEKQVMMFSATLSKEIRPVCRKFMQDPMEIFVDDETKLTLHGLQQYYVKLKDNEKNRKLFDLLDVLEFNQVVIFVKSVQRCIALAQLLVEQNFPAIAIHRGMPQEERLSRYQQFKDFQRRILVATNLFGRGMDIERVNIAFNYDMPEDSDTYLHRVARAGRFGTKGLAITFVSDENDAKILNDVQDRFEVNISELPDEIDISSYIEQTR

For experiment [1], the target named is T1, FLAG-PGC-1α wild type (WT) (human) (UniProt Q9UBK2).
T1 sequence: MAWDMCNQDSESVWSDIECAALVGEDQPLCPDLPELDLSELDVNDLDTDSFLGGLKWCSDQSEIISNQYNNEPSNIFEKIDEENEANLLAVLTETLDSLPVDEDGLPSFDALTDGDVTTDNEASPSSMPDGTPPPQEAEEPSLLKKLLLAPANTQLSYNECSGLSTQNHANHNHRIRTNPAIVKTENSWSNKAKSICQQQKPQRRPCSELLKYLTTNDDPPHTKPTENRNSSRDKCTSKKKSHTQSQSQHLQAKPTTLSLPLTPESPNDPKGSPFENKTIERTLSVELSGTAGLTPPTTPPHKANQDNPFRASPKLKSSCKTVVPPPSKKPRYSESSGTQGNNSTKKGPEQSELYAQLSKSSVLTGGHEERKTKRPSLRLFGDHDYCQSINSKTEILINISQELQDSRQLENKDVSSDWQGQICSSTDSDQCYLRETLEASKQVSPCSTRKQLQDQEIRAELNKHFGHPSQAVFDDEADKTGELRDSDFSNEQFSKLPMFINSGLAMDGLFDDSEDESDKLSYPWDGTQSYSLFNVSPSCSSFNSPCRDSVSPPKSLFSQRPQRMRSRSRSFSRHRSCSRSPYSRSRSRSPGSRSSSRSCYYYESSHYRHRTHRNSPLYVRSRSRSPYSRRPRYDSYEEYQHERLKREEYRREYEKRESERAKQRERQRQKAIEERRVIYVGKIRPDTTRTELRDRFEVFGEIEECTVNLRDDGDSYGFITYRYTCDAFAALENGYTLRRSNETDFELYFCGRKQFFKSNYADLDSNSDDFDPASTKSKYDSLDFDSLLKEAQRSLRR
Briefly: co-IP.

Experiment [2] has as its target T2, FLAG-PGC-1α ΔRS (human) (UniProt Q9UBK2).
T2 sequence: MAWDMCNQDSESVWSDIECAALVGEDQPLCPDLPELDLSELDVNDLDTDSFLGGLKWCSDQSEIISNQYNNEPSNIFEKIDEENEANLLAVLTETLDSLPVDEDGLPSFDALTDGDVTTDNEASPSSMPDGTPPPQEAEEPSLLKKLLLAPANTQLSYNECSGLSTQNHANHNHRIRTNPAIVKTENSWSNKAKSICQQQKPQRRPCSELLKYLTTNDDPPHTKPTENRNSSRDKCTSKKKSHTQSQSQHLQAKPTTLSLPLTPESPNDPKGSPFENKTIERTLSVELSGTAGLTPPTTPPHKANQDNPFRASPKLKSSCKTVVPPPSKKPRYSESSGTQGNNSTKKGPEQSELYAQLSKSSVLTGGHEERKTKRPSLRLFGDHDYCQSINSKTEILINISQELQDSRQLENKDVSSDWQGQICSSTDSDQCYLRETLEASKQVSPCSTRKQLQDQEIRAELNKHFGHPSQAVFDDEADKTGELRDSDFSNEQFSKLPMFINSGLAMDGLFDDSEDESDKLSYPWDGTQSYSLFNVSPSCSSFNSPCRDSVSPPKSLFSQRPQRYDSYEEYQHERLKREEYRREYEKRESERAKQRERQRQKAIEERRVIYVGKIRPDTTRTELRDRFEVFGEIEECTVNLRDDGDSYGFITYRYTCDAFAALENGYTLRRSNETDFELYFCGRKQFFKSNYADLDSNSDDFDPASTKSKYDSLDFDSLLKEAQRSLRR
Briefly: co-IP.

Experiment [3] concerns the target T3, GST-NXF1:p15 (UniProt Q9UBU9).
T3 sequence 1: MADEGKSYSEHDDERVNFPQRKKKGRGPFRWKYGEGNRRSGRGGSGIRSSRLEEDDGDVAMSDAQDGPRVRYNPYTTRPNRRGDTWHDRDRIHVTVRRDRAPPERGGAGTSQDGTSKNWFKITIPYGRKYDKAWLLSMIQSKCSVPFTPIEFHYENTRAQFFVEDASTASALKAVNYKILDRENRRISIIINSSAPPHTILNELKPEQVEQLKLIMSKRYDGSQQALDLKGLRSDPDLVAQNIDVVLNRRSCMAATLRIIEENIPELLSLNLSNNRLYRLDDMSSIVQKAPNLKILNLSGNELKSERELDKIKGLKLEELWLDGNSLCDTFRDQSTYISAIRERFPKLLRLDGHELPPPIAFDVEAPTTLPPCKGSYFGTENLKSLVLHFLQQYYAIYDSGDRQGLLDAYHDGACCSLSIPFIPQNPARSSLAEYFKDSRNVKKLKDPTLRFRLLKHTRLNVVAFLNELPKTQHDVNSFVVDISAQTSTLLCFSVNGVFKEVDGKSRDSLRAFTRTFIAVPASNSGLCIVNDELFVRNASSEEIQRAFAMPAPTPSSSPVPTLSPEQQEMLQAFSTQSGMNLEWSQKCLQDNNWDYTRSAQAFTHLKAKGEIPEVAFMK
T3 sequence 2: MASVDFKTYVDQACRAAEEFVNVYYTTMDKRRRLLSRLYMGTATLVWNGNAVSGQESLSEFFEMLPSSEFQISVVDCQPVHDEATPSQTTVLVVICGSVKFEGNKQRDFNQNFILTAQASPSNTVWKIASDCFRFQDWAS
In words: pull-down.

Results are given in words; binding and its absence hold for the method and conditions named. Binding seen in cells or lysates may run through a third protein. Some entries that bind do so weakly or less than the wild type. Sequences can lack the tags named with a protein.

For “UAP56 (endogenous TREX subunit) (from UniProt Q13838 1-428)”, the binding entry in experiment [1] and in experiment [2] was “binds” each time.

B1: THOC1 (endogenous TREX subunit) (protein, UniProt Q96FV9 1-657)
chain: MSPTPPLFSLPEARTRFTKSTREALNNKNIKPLLSTFSQVPGSENEKKCTLDQAFRGILEEEIINHSSCENVLAIISLAIGGVTEGICTASTPFVLLGDVLDCLPLDQCDTIFTFVEKNVATWKSNTFYSAGKNYLLRMCNDLLRRLSKSQNTVFCGRIQLFLARLFPLSEKSGLNLQSQFNLENVTVFNTNEQESTLGQKHTEDREEGMDVEEGEMGDEEAPTTCSIPIDYNLYRKFWSLQDYFRNPVQCYEKISWKTFLKYSEEVLAVFKSYKLDDTQASRKKMEELKTGGEHVYFAKFLTSEKLMDLQLSDSNFRRHILLQYLILFQYLKGQVKFKSSNYVLTDEQSLWIEDTTKSVYQLLSENPPDGERFSKMVEHILNTEENWNSWKNEGCPSFVKERTSDTKPTRIIRKRTAPEDFLGKGPTKKILMGNEELTRLWNLCPDNMEACKSETREHMPTLEEFFEEAIEQADPENMVENEYKAVNNSNYGWRALRLLARRSPHFFQPTNQQFKSLPEYLENMVIKLAKELPPPSEEIKTGEDEDEEDNDALLKENESPDVRRDKPVTGEQIEVFANKLGEQWKILAPYLEMKDSEIRQIECDSEDMKMRAKQLLVAWQDQEGVHATPENLINALNKSGLSDLAESLTNDNETNS
Turning to B1, the binding result in experiment [1] and in experiment [2] was “binds” each time.

B2: 35S-radiolabelled PGC-1α RS domain (aa565-633) (domain or fragment, UniProt Q9UBK2 565-633)
chain: MRSRSRSFSRHRSCSRSPYSRSRSRSPGSRSSSRSCYYYESSHYRHRTHRNSPLYVRSRSRSPYSRRPR
modifications: 35S-methionine radiolabel
For the molecule B2, the binding entry in experiment [3] is “binds”.

B3: GB1-6His-tagged PGC-1α RS domain (aa565-633) (domain or fragment, UniProt Q9UBK2 565-633)
chain: B2 chain
As for B3, in experiment [3], the binding entry was “binds”.
